Source: article PMC4309436
No constants are given. Whether binding was seen depends on the method and setting. Binding seen in cells or lysates may run through a third protein. Binding can be weak; no strength is given. For some assays here: Where a sequence is shown, tags or fusion partners need not be part of it.

B1: MKL1 (endogenous, NIH 3T3) (protein, UniProt Q8K4J6 1-964)
chain: MTLLEPEMLMMAVQSVLQLKLQQRRTREELVSQGIMPPLKSPAAFHEQRRSLERARTEDYLKRKIRSRPERAELVRMHILEETSAEPSLQAKQLKLKRARLADDLNEKIAQRPGPMELVEKNILPVESSLKEAIIVGQVNYPKVADSSSFDEDSSDALSPEQPASHESQGSVPSPLESRVSDPLPSATSISPTQVLSQLPMAPDPGETLFLAEQPPLPPAPLLPPSLANGSIVPTAKPAPTLIKQSQPKSASEKSQRSKKAKELKPKVKKLKYHQYIPPDQKQDKGAPAMDSSYAKILQQQQLFLQLQILNQQQQQQQQQHYNYQAILPAPPKPSAETPGSSAPTPSRSLSTSSSPSSGTPGPSGLARQSSTALAAKPGALPANLDDMKVAELKQELKLRSLPVSGTKTELIERLRAYQDQVSPAPGAPKAPATTSVLSKAGEVVVAFPAALLSTGSALVTAGLAPAEMVVATVTSNGMVKFGSTGSTPPVSPTPSERSLLSTGDENSTPGDAFGEMVTSPLTQLTLQASPLQIVKEEGARAASCCLSPGARAELEGLDKDQMLQEKDKQIEELTRMLQQKQQLVELLRLQLEQQKRAQQPAPASSPVKRESGFSSCQLSCQPQGSAHAFGSGLVVPTTNHGDTQAPAPESPPVVVKQEAGPPEPDLAPSSQLLLGSQGTSFLKRVSPPTLVTDSTGTHLILTVTNKSADGPGLPAGSPQQPLSQPGSPAPGPPAQMDLEHPPQPPFATPTSLLKKEPPGYEETVTQQPKQQENGSSSQHMDDLFDILIQSGEISADFKEPPSLPGKEKSPPAAAAYGPPLTPQPSPLSELPQAAPPPGSPTLPGRLEDFLESSTGLPLLTSGHEGPEPLSLIDDLHSQMLSSSAILDHPPSPMDTSELHFAPEPSSGMGLDLAVGHLDSMDWLELSSGGPVLSLAPLSTAAPSLFSMDFLDGHDLQLHWDSCL

What was measured:
[1] = target: T1, HA-tagged full-length MKL1 (UniProt Q8K4J6); assay: co-IP; HA-tagged MKL1 constructs immunoprecipitated from transfected NIH 3T3 lysates with anti-HA affinity gel (0.5% Triton X-100, 50 mM Tris-HCl pH 7.5, 150 mM NaCl); endogenous Ddx19 detected by western blot; empty HA as control
T1 sequence: B1 chain

[2] = target: Ddx19 (endogenous, NIH 3T3) (mouse (endogenous in NIH 3T3)); assay: co-IP; NIH 3T3 cytoplasmic extract (digitonin lysis, 50 mM NaCl, 50 mM Hepes pH 7.4) immunoprecipitated with anti-Ddx19 antibody and magnetic DynaBeads; beads without antibody as control

Row | Molecule | binding [1] | binding [2]
1 | Ddx19 (endogenous, NIH 3T3) (mouse (endogenous in NIH 3T3)) | binds | –
2 | B1 | – | binds
